The record followed here is the supplement of paper PMC10849652.

Amino acid sequences for entries named in this document (tags omitted). A change or cut given only in a name is not applied to a line headed by its entry.
UniProt P00519, whole entry, looked up: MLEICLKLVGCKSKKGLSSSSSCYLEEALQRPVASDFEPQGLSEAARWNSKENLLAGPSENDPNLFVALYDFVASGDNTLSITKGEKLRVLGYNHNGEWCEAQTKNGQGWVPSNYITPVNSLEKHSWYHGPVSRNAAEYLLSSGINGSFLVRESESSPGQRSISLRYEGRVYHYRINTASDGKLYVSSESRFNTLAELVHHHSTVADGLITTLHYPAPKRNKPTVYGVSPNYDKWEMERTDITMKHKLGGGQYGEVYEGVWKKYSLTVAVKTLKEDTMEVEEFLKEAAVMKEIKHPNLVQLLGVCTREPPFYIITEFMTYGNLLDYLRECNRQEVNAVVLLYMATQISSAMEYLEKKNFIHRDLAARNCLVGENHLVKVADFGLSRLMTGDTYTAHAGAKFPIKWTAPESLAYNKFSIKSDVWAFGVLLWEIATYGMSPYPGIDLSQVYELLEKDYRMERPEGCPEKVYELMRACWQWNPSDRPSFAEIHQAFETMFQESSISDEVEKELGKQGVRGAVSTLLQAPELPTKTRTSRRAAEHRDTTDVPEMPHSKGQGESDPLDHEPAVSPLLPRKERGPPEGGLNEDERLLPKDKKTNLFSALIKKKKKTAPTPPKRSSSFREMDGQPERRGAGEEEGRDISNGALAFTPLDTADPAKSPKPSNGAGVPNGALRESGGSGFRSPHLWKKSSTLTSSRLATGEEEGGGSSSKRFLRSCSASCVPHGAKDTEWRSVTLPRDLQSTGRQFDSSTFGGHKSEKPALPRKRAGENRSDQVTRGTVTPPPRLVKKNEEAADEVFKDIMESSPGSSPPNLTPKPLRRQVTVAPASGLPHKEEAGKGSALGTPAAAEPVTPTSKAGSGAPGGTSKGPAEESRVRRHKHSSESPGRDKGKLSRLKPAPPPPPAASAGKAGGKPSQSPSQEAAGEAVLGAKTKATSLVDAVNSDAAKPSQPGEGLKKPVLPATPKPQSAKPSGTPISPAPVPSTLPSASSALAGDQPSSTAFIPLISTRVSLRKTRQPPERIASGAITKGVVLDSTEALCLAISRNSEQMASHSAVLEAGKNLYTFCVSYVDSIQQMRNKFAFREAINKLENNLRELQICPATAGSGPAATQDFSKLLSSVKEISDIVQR
UniProt P12821, whole entry, looked up: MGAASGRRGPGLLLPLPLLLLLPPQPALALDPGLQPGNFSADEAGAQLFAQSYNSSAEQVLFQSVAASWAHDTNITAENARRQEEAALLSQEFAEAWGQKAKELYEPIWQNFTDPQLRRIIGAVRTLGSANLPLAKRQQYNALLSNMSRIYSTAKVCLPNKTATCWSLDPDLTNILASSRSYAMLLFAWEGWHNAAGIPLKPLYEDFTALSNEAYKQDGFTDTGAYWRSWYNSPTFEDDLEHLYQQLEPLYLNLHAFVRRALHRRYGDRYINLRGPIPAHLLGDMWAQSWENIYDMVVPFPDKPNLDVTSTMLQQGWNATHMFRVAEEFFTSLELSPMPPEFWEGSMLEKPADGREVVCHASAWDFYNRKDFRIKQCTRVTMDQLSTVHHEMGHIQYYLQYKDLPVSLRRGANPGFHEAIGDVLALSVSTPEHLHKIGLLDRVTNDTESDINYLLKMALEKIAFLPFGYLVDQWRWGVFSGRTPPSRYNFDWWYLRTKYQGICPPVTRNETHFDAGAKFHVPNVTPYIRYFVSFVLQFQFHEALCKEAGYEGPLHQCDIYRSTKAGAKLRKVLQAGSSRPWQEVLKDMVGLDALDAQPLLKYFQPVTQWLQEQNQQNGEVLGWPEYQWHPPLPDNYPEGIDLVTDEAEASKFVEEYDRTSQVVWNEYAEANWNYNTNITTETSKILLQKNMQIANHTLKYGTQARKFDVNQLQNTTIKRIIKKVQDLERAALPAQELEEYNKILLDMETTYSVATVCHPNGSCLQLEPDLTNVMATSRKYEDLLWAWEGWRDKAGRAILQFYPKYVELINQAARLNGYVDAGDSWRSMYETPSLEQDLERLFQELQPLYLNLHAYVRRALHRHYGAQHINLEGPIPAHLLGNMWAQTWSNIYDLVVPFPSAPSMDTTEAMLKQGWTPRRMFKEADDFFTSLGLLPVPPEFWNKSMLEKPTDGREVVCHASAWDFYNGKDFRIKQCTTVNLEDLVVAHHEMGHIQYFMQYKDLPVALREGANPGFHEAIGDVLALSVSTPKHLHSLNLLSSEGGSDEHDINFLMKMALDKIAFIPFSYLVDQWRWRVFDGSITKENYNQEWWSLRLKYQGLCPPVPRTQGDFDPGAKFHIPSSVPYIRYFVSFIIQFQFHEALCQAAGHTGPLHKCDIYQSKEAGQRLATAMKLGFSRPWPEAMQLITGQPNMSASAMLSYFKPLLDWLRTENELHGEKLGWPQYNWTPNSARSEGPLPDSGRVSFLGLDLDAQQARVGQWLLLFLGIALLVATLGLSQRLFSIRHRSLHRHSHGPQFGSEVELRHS
UniProt Q99758: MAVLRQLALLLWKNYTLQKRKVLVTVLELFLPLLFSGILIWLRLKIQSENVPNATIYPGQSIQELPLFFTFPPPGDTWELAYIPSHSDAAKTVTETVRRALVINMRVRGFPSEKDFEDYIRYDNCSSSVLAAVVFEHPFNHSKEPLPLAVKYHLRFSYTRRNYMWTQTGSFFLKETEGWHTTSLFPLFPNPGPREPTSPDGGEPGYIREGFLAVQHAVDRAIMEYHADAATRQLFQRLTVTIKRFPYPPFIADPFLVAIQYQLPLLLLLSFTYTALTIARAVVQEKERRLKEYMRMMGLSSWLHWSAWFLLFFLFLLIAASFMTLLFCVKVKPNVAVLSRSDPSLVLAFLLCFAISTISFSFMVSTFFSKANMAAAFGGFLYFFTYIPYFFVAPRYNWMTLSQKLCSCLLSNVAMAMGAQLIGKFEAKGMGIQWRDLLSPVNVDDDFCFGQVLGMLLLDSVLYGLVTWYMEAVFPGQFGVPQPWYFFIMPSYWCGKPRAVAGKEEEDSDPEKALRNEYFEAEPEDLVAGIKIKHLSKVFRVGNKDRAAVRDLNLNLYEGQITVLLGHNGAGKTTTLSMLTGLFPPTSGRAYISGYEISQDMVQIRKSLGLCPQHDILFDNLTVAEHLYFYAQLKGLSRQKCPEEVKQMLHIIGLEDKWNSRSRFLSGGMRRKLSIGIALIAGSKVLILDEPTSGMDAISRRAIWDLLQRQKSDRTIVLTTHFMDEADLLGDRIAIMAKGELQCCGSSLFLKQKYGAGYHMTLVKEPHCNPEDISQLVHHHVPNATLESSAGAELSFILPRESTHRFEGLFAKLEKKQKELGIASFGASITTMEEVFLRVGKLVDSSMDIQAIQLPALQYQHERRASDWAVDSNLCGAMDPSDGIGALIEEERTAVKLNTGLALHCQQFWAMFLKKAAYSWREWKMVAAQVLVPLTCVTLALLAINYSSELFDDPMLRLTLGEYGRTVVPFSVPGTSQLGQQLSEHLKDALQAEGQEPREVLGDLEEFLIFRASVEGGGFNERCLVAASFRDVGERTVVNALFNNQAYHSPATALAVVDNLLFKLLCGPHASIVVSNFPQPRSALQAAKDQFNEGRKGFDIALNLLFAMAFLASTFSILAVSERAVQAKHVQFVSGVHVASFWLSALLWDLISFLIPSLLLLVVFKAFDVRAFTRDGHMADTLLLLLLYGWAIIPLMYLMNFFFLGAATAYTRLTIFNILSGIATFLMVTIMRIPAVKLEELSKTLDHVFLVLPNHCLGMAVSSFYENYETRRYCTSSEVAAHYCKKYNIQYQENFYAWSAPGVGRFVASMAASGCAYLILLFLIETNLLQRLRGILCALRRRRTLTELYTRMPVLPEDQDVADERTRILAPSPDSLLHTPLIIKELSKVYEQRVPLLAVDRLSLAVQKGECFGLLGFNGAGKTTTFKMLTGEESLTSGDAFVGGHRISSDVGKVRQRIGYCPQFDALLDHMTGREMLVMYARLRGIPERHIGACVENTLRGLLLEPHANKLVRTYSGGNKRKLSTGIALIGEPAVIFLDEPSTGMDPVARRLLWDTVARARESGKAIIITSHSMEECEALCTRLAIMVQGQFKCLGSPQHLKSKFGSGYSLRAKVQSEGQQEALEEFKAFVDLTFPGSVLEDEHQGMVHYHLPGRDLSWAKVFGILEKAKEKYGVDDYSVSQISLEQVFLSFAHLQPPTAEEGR
UniProt Q9P1F3: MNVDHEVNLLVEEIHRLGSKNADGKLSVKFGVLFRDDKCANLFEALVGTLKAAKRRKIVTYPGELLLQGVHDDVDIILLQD

Assay in all cases: log2 fold change, soluble protein after heating vs DMSO (PISA); higher = thermal stabilisation; K562 lysate, 10 uM; active = over 0.2 and 3.5 SD of the protein, either way, in both replicates (recomputed)
Compound in one test: CS(=O)(=O)CCNCc1ccc(-c2ccc3ncnc(Nc4ccc(OCc5cccc(F)c5)c(Cl)c4)c3c2)o1 [lapatinib]
The gist of the method: (§1)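 K562 pellets were dounce-homogenised in PBS pH 7.4 containing 1 mM MgCl2, and the crude extract, at 1 mg/mL protein, was exposed to 10 μM compound for 30 min. Aliquots were heated for 3 min across 48°C-58°C, pooled, brought to 0.5% NP-40 at 4°C and spun at 21,000xg for 90 min, with the supernatant taken as soluble protein. TMTpro 16plex LC-MS/MS with equalised channel sums quantified that protein. Values are log-two fold changes in thermal stability relative to solvent controls, taken from duplicates.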

Compound in the next test: CS(=O)(=O)N1CCN(Cc2cc3nc(-c4cccc5[nH]ncc45)nc(N4CCOCC4)c3s2)CC1 [pictilisib]
The gist of the method:
as §1

Compound in test [1]: C[C@H](C1=CC=C(C=C1)C(=O)NC2=C3C=CNC3=NC=C2)N
The gist of the method: as §1

Compound in another test: C[C@H](Nc1ncnc2nc[nH]c12)c1cc2cccc(Cl)c2c(=O)n1-c1ccccc1 [duvelisib]
The gist of the method:
as §1

Compound in the next test: Cc1cc(Nc2cc(CN3CCOCC3)c3nc(C)c(Cc4ccc(Cl)cc4F)n3n2)n[nH]1 [gandotinib]
The gist of the method: as §1

Compound in test [2]: Cc1cccc(CC(=O)N2CCc3c2ccc(-c2cn(C)c4ncnc(N)c24)c3F)n1
The gist of the method: as §1

Compound in test [3]: Cc1nc(Nc2n[nH]c3c2CN(C(=O)N[C@H](CN(C)C)c2ccccc2)C3(C)C)c2sccc2n1
The gist of the method: as §1

Compound in test [4]: Cc1ncc(-c2ccnc(Nc3ccc(S(C)(=O)=O)cc3)n2)n1C(C)C
The gist of the method: as §1

Compound in test [5]: Cn1cc(-c2ccc3c(c2)CCN3C(=O)Cc2cccc(C(F)(F)F)c2)c2c(N)ncnc21
The gist of the method:
as §1

Compound in a further test: Cn1cc(CNCC2CCN(c3ncc(C(=O)NO)cn3)CC2)c2ccccc21 [quisinostat]
The gist of the method: as §1

Compound in another test: Cn1cncc1[C@@](N)(c1ccc(Cl)cc1)c1ccc2c(c1)c(-c1cccc(Cl)c1)cc(=O)n2C [tipifarnib]
The gist of the method:
as §1

Compound in test [6]: NC(=O)Nc1cc(-c2cccc(F)c2)sc1C(=O)N[C@H]1CCCNC1
The method in brief:
as §1

Compound in test [7]: NC(=O)c1cnc(N[C@@H]2CCCC[C@@H]2N)nc1Nc1cccc(-n2nccn2)c1
The method in brief: as §1

Compound in test [8]: NC1(c2ccc(-c3nc4ccn5c(=O)[nH]nc5c4cc3-c3ccccc3)cc2)CCC1
The method in brief:
as §1

Compound in a further test: C[C@@H](Oc1cc(-c2cnn(C3CCNCC3)c2)cnc1N)c1c(Cl)ccc(F)c1Cl [crizotinib]
The method in brief: as §1

Compound in a further test: Cc1cc(Nc2cc(N3CCN(C)CC3)nc(Sc3ccc(NC(=O)C4CC4)cc3)n2)n[nH]1 [tozasertib]
The gist of the method: as §1

Compound in another test: Cc1ccc(-n2nc(C(C)(C)C)cc2NC(=O)Nc2ccc(OCCN3CCOCC3)c3ccccc23)cc1 [doramapimod]
The method in brief: as §1

Compound in another test: Cc1ccc(NC(=O)c2ccc(CN3CC[C@H](N(C)C)C3)c(C(F)(F)F)c2)cc1Nc1nccc(-c2cncnc2)n1 [bafetinib]
The method in brief: as §1

Compound in a further test: Cc1nc(Nc2ncc(C(=O)Nc3c(C)cccc3Cl)s2)cc(N2CCN(CCO)CC2)n1 [dasatinib]
The gist of the method:
as §1

Compound in another test: Cc1cn(-c2cc(NC(=O)c3ccc(C)c(Nc4nccc(-c5cccnc5)n4)c3)cc(C(F)(F)F)c2)cn1 [nilotinib]
The gist of the method:
as §1

Some of the results follow.

With ABL1 isoform 2 (UniProt P00519), the log2 fold change is inactive: -0.01 in the test with lapatinib; inactive: -0.094 in the test with pictilisib; inactive: 0.135 in test [1]; inactive: 0.004 with duvelisib; inactive: -0.04 in the test with gandotinib; inactive: -0.048 in test [2]. Further, the log2 fold change in test [3] was inactive: 0.006; in test [4] it was inactive: 0.019; in test [5] it was inactive: -0.002; in the test with quisinostat it was inactive: -0.074; with tipifarnib, inactive: -0.074; in [6] it was inactive: 0.08. In addition, the values for the log2 fold change in test [7] and in test [8] were inactive: 0.022 and inactive: -0.009, respectively.

With ACE (UniProt P12821), the log2 fold change was inactive: 0.073 with lapatinib, inactive: 0.122 in [7] and inactive: 0.046 in [8].

For ABCA3 (UniProt Q99758), the log2 fold change in the test with lapatinib is inactive: 0.025; with pictilisib, inactive: -0.028; in the test with crizotinib it was active: -0.469; in test [1], inactive: -0.156; in the test with duvelisib, inactive: 0.061; with gandotinib, inactive: 0.113. Further, the log2 fold change is inactive: -0.16 with tozasertib; inactive: 0.203 in the test with doramapimod; inactive: -0.006 in the test with bafetinib; inactive: -0.075 in [2]; inactive: 0.044 with dasatinib; inactive: -0.066 in test [5]. The log2 fold change with quisinostat is inactive: 0.08; in test [6] it was inactive: -0.092; in test [7], inactive: 0.001; in test [8] it was inactive: -0.019.

As to ABCE1 (UniProt H0Y990), the log2 fold change with pictilisib is inactive: 0.054; with crizotinib it was inactive: 0.003; in test [1], inactive: 0.139; with gandotinib, inactive: -0.068; in the test with tozasertib, inactive: -0.094; with doramapimod it was inactive: 0.02. The log2 fold change was inactive: -0.234 with bafetinib; inactive: -0.104 in test [2]; inactive: -0.061 with quisinostat; inactive: 0.045 in test [6]; inactive: -0.075 in test [8].

For the target ABRACL (UniProt Q9P1F3), the log2 fold change was inactive: 0.154 with lapatinib; inactive: -0.075 with pictilisib; inactive: -0.105 with crizotinib; inactive: -0.053 in [1]; inactive: -0.239 in the test with duvelisib; inactive: -0.003 with gandotinib. The log2 fold change with doramapimod was inactive: -0.014; with bafetinib it was inactive: 0.09; in test [2], inactive: -0.047; in the test with nilotinib, inactive: 0.194; in [3], inactive: 0.006; with dasatinib it was inactive: -0.119. For the same target, the log2 fold change in test [4] was inactive: -0.042; in test [5], inactive: -0.067; with quisinostat, inactive: 0.053; in the test with tipifarnib, inactive: 0.023; in test [6], inactive: -0.083; in test [7], inactive: 0.037. Besides, the log2 fold change in test [8] is inactive: -0.076.
